Test results from paper PMC12040988, “GET3B is involved in chloroplast biogenesis and interacts with the thylakoidal ALB3 and ALB4 insertases” (Plant Cell Reports, 2025).
These are yes or no findings as the source states them, for the method shown. Some binding calls cover weakened binding; strength is not graded here. For some assays here: Tags and fused reporters may be left off the sequences shown.

By UniProt entry, the sequences of proteins in these tests, tags left out.
UniProt P40350: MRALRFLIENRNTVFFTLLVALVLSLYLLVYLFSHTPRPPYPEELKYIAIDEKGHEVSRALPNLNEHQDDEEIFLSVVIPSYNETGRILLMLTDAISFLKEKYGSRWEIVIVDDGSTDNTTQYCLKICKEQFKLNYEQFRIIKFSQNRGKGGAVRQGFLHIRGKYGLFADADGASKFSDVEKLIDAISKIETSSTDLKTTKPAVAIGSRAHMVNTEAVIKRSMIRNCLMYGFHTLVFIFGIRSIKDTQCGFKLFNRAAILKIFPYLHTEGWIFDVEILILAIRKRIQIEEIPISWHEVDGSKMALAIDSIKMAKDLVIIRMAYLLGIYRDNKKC

T1: Alb4-Cub (mature full-length Alb4 fused to the C-terminal half of ubiquitin) (Arabidopsis thaliana) (UniProt Q9FYL3)
T1 sequence: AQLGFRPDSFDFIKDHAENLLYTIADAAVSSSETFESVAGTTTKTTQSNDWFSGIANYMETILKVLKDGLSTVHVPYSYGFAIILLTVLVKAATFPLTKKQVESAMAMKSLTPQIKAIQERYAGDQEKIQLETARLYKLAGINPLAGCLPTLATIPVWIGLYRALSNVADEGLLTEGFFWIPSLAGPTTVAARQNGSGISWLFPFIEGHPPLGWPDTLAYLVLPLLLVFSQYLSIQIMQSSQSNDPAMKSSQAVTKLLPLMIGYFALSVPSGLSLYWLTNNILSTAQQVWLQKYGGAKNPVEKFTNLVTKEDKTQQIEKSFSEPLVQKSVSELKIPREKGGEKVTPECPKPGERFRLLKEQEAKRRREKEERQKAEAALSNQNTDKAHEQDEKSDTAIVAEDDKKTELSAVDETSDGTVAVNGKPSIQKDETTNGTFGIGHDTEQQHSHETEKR

T2: Alb3-Cub (mature full-length Alb3 fused to the C-terminal half of ubiquitin) (Arabidopsis thaliana) (UniProt Q8LBP4)
T2 sequence: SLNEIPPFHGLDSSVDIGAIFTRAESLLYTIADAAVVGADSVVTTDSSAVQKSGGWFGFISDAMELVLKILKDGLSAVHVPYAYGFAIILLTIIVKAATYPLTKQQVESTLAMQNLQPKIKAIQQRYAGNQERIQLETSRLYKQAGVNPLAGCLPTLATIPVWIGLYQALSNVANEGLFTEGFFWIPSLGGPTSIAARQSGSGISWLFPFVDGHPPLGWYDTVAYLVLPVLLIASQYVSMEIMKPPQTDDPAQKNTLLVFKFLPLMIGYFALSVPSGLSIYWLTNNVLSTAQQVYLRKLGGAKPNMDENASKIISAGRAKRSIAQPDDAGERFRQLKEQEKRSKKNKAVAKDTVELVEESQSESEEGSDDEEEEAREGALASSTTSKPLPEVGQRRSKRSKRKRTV

T3: SecY1-Cub (UniProt Q38885)
T3 sequence: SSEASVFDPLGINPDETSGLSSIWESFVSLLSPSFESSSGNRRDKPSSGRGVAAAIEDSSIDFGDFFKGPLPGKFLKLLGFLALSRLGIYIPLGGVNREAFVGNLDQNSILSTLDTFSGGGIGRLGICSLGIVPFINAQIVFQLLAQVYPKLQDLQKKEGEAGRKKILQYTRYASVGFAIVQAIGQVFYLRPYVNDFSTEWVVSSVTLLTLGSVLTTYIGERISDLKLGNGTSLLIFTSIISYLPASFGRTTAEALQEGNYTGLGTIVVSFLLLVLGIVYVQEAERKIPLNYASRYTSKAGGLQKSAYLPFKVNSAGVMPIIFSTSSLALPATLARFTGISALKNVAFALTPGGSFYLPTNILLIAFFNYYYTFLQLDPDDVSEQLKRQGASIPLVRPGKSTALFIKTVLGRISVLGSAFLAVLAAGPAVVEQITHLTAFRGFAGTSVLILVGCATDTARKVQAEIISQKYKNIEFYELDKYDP

B1: NubG-Get3b (domain or fragment, UniProt A1L4Y1 68-411)
chain: VASPTETISEFDEMVSGTKRKYYMLGGKGGVGKTSCAASLAVRFANNGHPTLVVSTDPAHSLSDSFAQDLTGGMLVPVEGPEAPLFALEINPEKAREEFRSASQMNGGTGVKDFMDGMGLGMLVEQLGELKLGELLDTPPPGLDEAIAISKVIQFLESPEYNMFTRIVFDTAPTGHTLRLLSLPDFLDASIGKILKLRQKITSATSAIKSVFGKEEKGPDAADKLEKLRERMVKVRELFRDTESTEFVIVTIPTVMAVSESSRLSASLKKESVPVKRLIVNQLLPPSSSDCKFCSIKRKDQMRALDMIREDSELSALTLMEAPLVDMEIRGVPALRFLGDIIWK

Columns and labels:
Test in all cases: two-hybrid; split-ubiquitin yeast two-hybrid in DSY-1 yeast; Cub fusions as bait, NubG fusions as prey; growth on selective medium (-LTH, lacking Leu, Trp and His) against permissive medium (-LT)
[1] = biological target: T1, Alb4-Cub (mature full-length Alb4 fused to the C-terminal half of ubiquitin) (Arabidopsis thaliana)
[2] = biological target: T2, Alb3-Cub (mature full-length Alb3 fused to the C-terminal half of ubiquitin) (Arabidopsis thaliana)
SecY1-Cub = biological target: T3, SecY1-Cub

| Molecule | binding [1] | binding [2] | binding (SecY1-Cub) |
| --- | --- | --- | --- |
| Alg5-NubG (from UniProt P40350 1-334) | no binding | no binding | – |
| B1 | binds | binds | no binding |
